Results from patent US20210333272.
Results from cells or extracts need not show a direct contact. For part of these data: Negatives hold for the conditions tested. For part of these data: For at least one entry, the source does not settle the construct or the ends of the probe.

Chains of the proteins cited; added tags and fusions are not shown. A line that says so, or that is headed by a name, gives the form on record, which may keep a tag or linker. Residues count along the entry.
UniProt P08962, 2-238: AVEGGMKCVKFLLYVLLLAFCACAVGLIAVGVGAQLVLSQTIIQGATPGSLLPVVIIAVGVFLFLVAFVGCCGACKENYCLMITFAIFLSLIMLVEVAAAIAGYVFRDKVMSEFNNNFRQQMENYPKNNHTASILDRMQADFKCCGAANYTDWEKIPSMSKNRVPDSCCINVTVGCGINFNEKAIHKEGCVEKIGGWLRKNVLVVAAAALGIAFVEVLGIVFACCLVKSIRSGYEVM
MUC-1 (on MCF-7-derived small extracellular vesicles) (Homo sapiens), one chain, as listed by the source, chain 2 of 2: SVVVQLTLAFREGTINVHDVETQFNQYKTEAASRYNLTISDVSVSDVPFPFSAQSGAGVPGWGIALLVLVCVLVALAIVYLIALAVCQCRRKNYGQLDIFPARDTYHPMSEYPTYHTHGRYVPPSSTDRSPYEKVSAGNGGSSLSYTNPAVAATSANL
MUC-1 (on MCF-7-derived small extracellular vesicles) (Homo sapiens), one chain, as listed by the source, chain 1 of 2: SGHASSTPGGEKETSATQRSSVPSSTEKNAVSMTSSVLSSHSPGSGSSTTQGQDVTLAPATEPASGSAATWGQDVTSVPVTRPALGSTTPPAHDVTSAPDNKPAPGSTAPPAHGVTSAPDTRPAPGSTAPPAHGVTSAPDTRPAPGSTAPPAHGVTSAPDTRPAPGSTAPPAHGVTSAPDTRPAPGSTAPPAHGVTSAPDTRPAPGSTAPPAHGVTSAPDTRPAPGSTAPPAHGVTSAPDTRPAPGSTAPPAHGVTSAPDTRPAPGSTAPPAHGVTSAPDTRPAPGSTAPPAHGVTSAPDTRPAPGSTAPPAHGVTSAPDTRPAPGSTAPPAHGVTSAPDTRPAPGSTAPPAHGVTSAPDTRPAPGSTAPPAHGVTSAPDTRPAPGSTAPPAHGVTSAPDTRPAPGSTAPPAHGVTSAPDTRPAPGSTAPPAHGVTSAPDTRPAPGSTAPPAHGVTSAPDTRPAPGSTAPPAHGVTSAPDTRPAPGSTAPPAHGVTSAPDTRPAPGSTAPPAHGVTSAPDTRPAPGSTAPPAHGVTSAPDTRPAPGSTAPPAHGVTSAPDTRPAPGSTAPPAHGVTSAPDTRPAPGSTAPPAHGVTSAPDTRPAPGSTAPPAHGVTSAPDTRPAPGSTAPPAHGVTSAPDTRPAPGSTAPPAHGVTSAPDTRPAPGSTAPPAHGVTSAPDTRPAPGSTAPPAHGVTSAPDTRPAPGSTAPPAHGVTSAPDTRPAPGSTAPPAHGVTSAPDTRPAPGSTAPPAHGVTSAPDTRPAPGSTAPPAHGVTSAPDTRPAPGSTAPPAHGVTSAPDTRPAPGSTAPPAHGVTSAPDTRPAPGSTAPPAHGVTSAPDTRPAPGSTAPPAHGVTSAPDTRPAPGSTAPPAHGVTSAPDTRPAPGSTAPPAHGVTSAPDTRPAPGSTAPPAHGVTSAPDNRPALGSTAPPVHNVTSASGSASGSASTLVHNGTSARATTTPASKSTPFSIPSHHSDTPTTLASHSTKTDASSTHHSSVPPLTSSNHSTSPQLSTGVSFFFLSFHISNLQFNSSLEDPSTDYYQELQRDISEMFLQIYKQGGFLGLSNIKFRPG

Columns and labels:
Assay in all cases: binding assay
[1] = system: MUC-1 (on MCF-7-derived small extracellular vesicles) (Homo sapiens); conditions: imprinted polymer sensor; significant fluorescence quenching with MCF-7 sEVs; protein on the cell surface; protein details: displayed on MCF-7 sEVs …; single-stranded DNA
[2] = system: healthy human serum-derived small extracellular vesicles (MUC-1 not expressed) (Homo sapiens); conditions: specificity control; no response with healthy serum sEVs lacking MUC-1; protein on the cell surface; protein details: EXOP-500A-1; single-stranded DNA
[3] = molecular target: CD63 (on PC3-derived small extracellular vesicles) (Homo sapiens) (UniProt P08962); conditions: imprinted polymer sensor; only slight nonspecific quenching with PC3 sEVs; protein on the cell surface; single-stranded DNA

Sequence | binding result [1] | binding result [2] | binding result [3]
CACAAATCTGTCGCTGAGTAGCAGTTGATCCTTTGGATACCCTGG [MUC-1 DNA aptamer with ODN2 extension] | binds | no binding | 
CACAAATCTGTCGCTGAGTATGTGCGGCGAAATATTATAGCTACCGCAATTA [random polynucleotide with ODN2 extension] |  |  | no binding
